Results: paper doi:10.1101/2023.05.25.542057 (bioRxiv, 2023)
Substitutions are numbered along the chain they refer to. In names and notes the source's numbering stands. Results are given in words; binding and its absence hold for the method and conditions named. In cells and extracts the contact can be indirect. Some binding calls cover weakened binding; strength is not graded here. Sequences can lack the tags named with a protein.

T1: Codanin1 full-length S1036F-R1042W-D1043V (FWV), tagged, expressed in HEK293T (human) (UniProt Q8IWY9)
T1 sequence: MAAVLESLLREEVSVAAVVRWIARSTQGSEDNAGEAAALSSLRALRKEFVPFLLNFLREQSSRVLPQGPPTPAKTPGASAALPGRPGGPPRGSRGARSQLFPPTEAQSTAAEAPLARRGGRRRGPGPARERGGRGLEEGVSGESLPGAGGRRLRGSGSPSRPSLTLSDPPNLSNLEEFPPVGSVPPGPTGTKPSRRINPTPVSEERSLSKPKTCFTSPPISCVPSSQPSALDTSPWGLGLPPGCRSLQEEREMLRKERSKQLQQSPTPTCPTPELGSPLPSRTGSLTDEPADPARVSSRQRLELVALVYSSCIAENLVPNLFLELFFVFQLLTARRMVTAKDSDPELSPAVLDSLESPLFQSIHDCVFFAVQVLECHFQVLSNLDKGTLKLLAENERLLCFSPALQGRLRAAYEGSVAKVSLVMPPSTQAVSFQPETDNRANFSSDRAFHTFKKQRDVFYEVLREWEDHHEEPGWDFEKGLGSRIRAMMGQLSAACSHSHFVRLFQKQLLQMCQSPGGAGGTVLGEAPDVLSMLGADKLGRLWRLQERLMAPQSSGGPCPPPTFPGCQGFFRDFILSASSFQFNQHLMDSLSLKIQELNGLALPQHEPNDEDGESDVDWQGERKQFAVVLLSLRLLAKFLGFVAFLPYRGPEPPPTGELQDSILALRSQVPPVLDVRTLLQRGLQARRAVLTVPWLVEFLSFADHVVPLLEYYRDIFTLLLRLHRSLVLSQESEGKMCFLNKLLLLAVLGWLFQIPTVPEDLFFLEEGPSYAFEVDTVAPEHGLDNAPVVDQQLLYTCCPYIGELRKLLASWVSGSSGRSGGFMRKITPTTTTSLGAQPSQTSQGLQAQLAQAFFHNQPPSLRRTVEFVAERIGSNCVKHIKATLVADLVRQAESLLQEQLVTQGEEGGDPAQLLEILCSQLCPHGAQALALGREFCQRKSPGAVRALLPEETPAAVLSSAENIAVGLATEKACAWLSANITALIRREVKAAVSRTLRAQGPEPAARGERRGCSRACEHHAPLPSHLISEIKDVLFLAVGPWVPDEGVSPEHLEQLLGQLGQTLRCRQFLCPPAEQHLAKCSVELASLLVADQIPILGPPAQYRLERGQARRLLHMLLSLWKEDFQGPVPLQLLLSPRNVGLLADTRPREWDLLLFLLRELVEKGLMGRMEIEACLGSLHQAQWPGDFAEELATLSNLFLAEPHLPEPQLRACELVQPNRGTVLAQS

T2: Codanin1 full-length wild type, Flag- or Myc-tagged, expressed in HEK293T (human) (UniProt Q8IWY9)
T2 sequence: T1 sequence with F1036S, W1042R, V1043D

T3: Codanin1_(Cterm) S1036F-R1042W-D1043V (FWV), tagged, expressed in HEK293T (human) (UniProt Q8IWY9)
T3 sequence: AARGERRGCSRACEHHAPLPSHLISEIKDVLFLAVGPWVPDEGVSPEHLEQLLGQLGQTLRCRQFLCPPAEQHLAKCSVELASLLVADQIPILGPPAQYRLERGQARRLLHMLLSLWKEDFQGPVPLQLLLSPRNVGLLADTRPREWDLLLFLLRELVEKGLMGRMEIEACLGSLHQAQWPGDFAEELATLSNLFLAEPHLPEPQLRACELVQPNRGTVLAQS

T4: Codanin1_(Cterm) wild type, Flag- or Myc-tagged, expressed in HEK293T (human) (UniProt Q8IWY9)
T4 sequence: T3 sequence with F32S, W38R, V39D

T5: Codanin1 full-length wild type, Flag- or Myc-tagged, expressed in HEK293T (human), Q8IWY9
T5 chain: T1 sequence with F1036S, W1042R, V1043D

B1: CDAN1-interacting nuclease 1 (CDIN1), full-length, recombinant from bacteria (natural protein)
chain: MILTKAQYDEIAQCLVSVPPTRQSLRKLKQRFPSQSQATLLSIFSQEYQKHIKRTHAKHHTSEAIESYYQRYLNGVVKNGAAPVLLDLANEVDYAPSLMARLILERFLQEHEETPPSKSIINSMLRDPSQIPDGVLANQVYQCIVNDCCYGPLVDCIKHAIGHEHEVLLRDLLLEKNLSFLDEDQLRAKGYDKTPDFILQVPVAVEGHIIHWIESKASFGDECSHHAYLHDQFWSYWNRFGPGLVIYWYGFIQELDCNRERGILLKACFPTNIVTLCHSIA
B2: CDIN1 C156Y, tagged, expressed in HEK293T (protein, UniProt Q9Y2V0 1-281)
chain: B1 chain with C156Y
B3: CDIN1 L178Q, tagged, expressed in HEK293T (protein, UniProt Q9Y2V0 1-281)
chain: B1 chain with L178Q
B4: CDIN1 Y94C-C156Y-L178Q (CYQ), tagged, expressed in HEK293T (protein, UniProt Q9Y2V0 1-281)
chain: B1 chain with Y94C, C156Y, L178Q
B5: CDIN1 Y94S-C156Y-L178Q (SYQ), tagged, expressed in HEK293T (protein, UniProt Q9Y2V0 1-281)
chain: B1 chain with Y94S, C156Y, L178Q
B6: CDIN1 Y94C, tagged, expressed in HEK293T, Q9Y2V0 1-281 (protein)
chain: B1 chain with Y94C
B7: CDIN1 Y94S, tagged, expressed in HEK293T (protein, UniProt Q9Y2V0 1-281)
chain: B1 chain with Y94S
B8: CDIN1 L178Q, tagged, expressed in HEK293T, Q9Y2V0 1-281 (protein)
chain: B1 chain with L178Q
B9: CDIN1 Y94C, tagged, expressed in HEK293T (protein, UniProt Q9Y2V0 1-281)
chain: B1 chain with Y94C

Assays:
Assay in all cases: co-IP
[1] = target: T1, Codanin1 full-length S1036F-R1042W-D1043V (FWV), tagged, expressed in HEK293T (human)
[2] = target: T2, Codanin1 full-length wild type, Flag- or Myc-tagged, expressed in HEK293T (human)
[3] = target: T3, Codanin1_(Cterm) S1036F-R1042W-D1043V (FWV), tagged, expressed in HEK293T (human)
[4] = target: T4, Codanin1_(Cterm) wild type, Flag- or Myc-tagged, expressed in HEK293T (human)
[5] = target: T5, Codanin1 full-length wild type, Flag- …; conditions: remark: other sources report otherwise

Row | Binder | binding [2] | binding [4] | further results
1 | B1 | binds | binds | binding [1]: no binding; binding [3]: no binding
2 | B2 | binds | binds | –
3 | B3 | – | no binding | –
4 | B4 | no binding | – | –
5 | B5 | no binding | – | –
6 | B6 | – | – | binding [5]: no binding
7 | B7 | no binding | no binding | –
8 | B8 | – | – | binding [5]: no binding
9 | B9 | – | no binding | –
